One may read the AC50 as the midpoint of the concentration-response curve, whichever way the signal moves.

Sequences of proteins named here, by UniProt entry; tags and fusion partners are left off.
UniProt P04637, whole entry, looked up: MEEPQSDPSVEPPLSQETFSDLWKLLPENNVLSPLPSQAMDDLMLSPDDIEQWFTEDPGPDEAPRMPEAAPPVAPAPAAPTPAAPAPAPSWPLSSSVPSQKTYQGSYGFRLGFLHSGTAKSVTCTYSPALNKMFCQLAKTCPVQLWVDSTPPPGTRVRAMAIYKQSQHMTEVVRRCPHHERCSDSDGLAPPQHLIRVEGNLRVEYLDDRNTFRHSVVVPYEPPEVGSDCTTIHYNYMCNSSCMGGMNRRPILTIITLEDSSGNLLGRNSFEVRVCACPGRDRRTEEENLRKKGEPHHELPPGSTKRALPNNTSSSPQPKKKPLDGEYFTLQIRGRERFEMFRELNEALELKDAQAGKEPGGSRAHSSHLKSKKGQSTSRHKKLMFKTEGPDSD

Only a part is listed here, and it is no random draw. Records with an inconclusive call do not appear. Activity calls are given as the source filed them. Rule for the calls: active = hit-call score of the fitted dose curve at least 0.9, where 1 is the maximum; inconclusive = response in the unintended direction; inactive = score below 0.9.

The target of the first assay is Cellular tumor antigen p53 (Homo sapiens) (UniProt P04637). Kind of assay: TOX21_p53_BLA_p3_ratio: Tox21 HCT-116 p53 Agonism Beta-lactamase Assay, Ratio, Phase 3 (AID 2283596). The essentials:
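HCT116 p53-bla cells (4000/well) given compound in DMSO (217-fold dilution) after 5 h, incubated 16 h at 37C. CCF4-AM substrate 2 h at room temperature; 460/530 nm emission ratio, gain fitted against DMSO.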
With `NC(=O)c1ncn([C@@H]2O[C@H](CO)[C@@H](O)[C@H]2O)n1`, the half-maximal activity concentration (AC50) was active: 50.5 µM.

With `CN1c2cc(O)c(N=NC(N)=O)cc2CC1S(=O)(=O)O` (configuration not stated), the outcome was inactive.

Consider `Cc1c(Nc2ncccc2C(=O)O)cccc1C(F)(F)F`, for which the result was inactive.

For the molecule `Nc1ccc2ccccc2c1S(=O)(=O)O`, the outcome was inactive.

Turning to `O=S(=O)(O)c1ccc2cc(O)ccc2c1`, the outcome was inactive.

System in a further assay: not listed separately
Kind of assay: TOX21_p53_BLA_p4_viability: Viability Assessment in the Tox21 HCT-116 p53 Agonism Beta-lactamase Assay, Phase 4 (AID 2283597).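 Note: hits lower the luminescence signal meaning cytotoxicity.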 Put shortly: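 Following a 16 h exposure at 37C, the treated HCT116 wells were first read for the FRET ratio. They were then lysed with CellTiter-Glo, and ATP luminescence was recorded after 30 min at room temperature.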
Regarding `CC1(C)O[C@@H]2C[C@H]3[C@@H]4CCC5=CC(=O)C=C[C@]5(C)[C@@]4(F)[C@@H](O)C[C@]3(C)[C@]2(C(=O)CO)O1`, the molecule was called inactive.

In the case of `CC(=O)Oc1cccc(C)c1`, the result was inactive.

Turning to `CC1(C)O[C@@H]2[C@@H](CO[C@@]3(COS(N)(=O)=O)OC(C)(C)O[C@@H]23)O1`, the result was inactive.

As to `CCCCCCCCCCC(CO)CCCCCCCC` (configuration not stated), the molecule was called inactive.

Turning to `COc1cc(N)c(Cl)cc1C(=O)NC1CCN(Cc2ccccc2)CC1`, the call was inactive.

`C=C(C)C(=O)Nc1ccc(Cl)c(Cl)c1`: the molecule was called inactive.

Take `CO[C@H]1O[C@@H]2O[C@@]3(C)CC[C@H]4[C@H](C)CC[C@@H]([C@H]1C)[C@@]24OO3`: the outcome was inactive.

Turning to `Nc1ccc2cc(S(=O)(=O)O)cc(O)c2c1`, the call was inactive.

`Cc1c(O)cccc1C(=O)N[C@@H](CSc1ccccc1)[C@H](O)CN1C[C@H]2CCCC[C@H]2C[C@H]1C(=O)NC(C)(C)C`: the half-maximal activity concentration (AC50) is active: 10.6 µM.

For the molecule `CN(C)CCn1nnnc1SCC1=C(C(=O)O)N2C(=O)[C@@H](NC(=O)Cc3csc(N)n3)[C@H]2SC1`, the result was inactive.

Take `CCOC(=O)COc1ccc2c(C)c(CCN(CC)CC)c(=O)oc2c1Cl`: the molecule was classed as inactive.

Turning to `CCCCCCCCCC(=O)OCC`, the outcome was inactive.

For the origin of these results see PubChem BioAssay (EPA / NIEHS).
